Laboratory results: the supplement of paper PMC10849652
This is one part of the list.

Amino acid sequences for entries named in this document (tags omitted). A change or cut given only in a name is not applied to a line headed by its entry.
UniProt P12694: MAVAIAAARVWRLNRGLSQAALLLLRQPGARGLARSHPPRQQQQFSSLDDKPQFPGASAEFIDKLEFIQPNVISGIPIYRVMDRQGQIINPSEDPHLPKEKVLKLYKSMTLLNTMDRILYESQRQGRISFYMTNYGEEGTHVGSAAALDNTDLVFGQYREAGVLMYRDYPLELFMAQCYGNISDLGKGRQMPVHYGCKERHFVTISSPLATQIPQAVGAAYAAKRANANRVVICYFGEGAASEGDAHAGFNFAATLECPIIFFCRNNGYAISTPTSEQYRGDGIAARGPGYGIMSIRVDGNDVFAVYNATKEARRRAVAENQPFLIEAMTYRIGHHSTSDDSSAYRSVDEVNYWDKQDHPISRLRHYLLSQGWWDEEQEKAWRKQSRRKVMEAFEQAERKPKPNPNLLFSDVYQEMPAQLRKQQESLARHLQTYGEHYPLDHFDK
UniProt Q86WA6: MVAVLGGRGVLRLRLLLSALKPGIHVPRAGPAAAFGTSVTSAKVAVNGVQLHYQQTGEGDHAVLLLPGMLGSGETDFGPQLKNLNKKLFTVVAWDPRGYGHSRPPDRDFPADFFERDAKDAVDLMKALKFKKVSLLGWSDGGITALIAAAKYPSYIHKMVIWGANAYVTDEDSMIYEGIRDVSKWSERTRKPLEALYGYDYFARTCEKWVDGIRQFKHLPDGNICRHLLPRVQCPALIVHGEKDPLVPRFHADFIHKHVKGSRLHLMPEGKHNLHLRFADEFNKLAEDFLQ
UniProt Q6UW56: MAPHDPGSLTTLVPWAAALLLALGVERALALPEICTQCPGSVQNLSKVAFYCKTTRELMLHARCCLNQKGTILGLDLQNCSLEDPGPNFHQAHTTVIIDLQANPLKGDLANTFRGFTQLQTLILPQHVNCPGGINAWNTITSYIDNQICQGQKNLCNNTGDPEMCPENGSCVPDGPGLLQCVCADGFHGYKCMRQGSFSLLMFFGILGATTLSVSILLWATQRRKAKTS
UniProt O94766: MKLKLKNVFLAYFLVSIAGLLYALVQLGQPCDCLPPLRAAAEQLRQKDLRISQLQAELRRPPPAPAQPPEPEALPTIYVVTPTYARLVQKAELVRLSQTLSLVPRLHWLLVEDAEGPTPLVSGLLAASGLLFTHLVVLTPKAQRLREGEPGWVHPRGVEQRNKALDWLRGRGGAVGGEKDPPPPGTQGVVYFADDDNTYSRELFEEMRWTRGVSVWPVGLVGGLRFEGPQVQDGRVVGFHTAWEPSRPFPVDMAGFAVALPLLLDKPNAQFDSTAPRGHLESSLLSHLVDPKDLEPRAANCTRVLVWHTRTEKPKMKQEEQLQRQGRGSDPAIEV
UniProt Q9NWV8, whole entry, looked up: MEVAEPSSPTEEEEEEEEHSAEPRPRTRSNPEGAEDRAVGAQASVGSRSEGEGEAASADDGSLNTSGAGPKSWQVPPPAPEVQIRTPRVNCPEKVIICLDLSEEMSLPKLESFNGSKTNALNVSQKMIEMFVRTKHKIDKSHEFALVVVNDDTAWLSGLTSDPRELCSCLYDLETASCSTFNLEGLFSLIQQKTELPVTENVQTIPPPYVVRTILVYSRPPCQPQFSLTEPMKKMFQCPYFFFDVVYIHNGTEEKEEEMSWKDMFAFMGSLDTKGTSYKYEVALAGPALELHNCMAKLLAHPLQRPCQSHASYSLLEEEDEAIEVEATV
UniProt Q8WWM7: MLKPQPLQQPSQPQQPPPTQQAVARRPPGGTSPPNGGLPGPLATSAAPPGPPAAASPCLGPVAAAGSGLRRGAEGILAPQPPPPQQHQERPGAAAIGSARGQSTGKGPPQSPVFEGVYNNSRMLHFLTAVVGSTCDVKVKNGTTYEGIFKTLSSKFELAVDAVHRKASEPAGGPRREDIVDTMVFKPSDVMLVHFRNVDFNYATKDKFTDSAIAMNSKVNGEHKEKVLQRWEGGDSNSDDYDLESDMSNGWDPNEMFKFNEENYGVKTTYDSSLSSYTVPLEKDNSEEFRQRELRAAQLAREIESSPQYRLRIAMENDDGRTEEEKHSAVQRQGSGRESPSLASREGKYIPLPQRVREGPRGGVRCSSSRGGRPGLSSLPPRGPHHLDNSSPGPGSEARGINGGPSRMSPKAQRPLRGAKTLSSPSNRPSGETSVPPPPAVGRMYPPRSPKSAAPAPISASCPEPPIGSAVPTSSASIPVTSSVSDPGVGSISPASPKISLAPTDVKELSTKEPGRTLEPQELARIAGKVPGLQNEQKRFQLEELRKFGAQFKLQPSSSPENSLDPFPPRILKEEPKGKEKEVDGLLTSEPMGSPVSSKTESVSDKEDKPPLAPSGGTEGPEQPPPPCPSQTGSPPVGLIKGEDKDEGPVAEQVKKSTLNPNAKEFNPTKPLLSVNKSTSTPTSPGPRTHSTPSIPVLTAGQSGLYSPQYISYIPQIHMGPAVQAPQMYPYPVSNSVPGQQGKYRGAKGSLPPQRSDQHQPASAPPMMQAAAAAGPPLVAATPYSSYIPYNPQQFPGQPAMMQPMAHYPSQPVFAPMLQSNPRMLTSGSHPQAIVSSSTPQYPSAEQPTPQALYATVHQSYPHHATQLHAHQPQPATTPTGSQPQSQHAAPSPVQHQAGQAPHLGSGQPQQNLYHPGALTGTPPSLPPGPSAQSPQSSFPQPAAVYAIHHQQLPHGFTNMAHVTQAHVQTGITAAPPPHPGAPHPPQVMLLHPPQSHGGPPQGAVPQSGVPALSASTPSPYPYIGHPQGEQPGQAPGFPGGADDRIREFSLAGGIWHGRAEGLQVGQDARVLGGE
UniProt Q8NBF6: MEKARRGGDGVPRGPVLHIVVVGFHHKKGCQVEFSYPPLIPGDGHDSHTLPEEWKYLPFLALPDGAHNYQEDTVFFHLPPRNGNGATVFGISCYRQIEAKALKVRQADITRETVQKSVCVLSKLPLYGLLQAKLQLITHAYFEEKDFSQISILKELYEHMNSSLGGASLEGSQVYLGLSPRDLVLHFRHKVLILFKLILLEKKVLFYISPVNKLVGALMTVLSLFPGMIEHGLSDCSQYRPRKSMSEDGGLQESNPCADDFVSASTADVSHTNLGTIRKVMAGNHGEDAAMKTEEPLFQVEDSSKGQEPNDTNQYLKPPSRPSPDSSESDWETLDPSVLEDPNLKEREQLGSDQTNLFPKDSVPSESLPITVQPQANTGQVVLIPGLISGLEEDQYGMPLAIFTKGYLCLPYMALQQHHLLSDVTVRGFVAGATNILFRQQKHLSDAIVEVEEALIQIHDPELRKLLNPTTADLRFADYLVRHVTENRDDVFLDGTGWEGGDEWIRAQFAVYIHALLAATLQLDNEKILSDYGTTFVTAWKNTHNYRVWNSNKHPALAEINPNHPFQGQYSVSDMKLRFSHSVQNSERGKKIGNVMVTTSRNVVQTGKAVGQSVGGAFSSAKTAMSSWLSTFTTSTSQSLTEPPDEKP
UniProt Q9BX63: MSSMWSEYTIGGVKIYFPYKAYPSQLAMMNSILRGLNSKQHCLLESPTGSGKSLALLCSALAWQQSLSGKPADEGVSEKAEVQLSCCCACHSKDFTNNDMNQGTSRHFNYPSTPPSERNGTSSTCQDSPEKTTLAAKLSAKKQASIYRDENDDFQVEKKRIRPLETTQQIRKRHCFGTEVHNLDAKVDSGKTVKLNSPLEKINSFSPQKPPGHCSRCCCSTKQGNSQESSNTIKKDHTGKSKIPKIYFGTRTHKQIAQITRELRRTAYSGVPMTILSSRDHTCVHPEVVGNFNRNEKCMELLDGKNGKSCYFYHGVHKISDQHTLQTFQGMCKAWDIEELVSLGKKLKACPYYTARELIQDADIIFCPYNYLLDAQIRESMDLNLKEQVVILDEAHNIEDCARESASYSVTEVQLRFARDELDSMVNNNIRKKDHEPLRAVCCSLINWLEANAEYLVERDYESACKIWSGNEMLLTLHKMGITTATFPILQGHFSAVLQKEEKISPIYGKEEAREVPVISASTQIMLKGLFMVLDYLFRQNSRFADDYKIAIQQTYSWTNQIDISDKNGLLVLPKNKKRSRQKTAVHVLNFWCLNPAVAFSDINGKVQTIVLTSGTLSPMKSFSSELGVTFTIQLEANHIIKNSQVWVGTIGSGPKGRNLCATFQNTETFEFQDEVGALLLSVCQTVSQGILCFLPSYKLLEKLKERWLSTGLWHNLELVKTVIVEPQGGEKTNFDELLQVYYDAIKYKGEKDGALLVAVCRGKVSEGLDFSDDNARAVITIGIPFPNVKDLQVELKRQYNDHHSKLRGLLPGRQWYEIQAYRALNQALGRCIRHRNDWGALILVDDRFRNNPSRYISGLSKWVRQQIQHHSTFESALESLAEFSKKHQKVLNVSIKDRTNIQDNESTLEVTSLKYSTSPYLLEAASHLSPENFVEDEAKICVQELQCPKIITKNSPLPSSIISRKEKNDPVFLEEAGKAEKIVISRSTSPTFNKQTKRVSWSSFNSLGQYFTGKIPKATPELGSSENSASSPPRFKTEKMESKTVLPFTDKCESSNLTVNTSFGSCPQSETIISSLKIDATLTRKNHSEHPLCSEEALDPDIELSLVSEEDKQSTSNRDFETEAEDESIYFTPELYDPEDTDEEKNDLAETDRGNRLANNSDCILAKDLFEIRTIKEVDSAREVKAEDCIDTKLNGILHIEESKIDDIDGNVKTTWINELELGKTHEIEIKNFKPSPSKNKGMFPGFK
UniProt Q13867: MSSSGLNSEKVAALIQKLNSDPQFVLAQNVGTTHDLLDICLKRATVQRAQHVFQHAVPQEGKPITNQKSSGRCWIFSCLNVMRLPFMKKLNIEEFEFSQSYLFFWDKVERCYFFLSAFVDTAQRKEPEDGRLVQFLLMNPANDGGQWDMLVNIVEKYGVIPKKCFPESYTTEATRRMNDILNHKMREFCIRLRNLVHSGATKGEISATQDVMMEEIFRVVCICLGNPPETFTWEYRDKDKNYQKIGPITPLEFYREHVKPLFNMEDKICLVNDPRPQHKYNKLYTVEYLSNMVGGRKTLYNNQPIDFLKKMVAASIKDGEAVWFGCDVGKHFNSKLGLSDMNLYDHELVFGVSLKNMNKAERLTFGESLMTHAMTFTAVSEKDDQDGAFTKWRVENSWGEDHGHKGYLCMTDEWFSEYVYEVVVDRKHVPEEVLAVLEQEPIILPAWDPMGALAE
UniProt O95429: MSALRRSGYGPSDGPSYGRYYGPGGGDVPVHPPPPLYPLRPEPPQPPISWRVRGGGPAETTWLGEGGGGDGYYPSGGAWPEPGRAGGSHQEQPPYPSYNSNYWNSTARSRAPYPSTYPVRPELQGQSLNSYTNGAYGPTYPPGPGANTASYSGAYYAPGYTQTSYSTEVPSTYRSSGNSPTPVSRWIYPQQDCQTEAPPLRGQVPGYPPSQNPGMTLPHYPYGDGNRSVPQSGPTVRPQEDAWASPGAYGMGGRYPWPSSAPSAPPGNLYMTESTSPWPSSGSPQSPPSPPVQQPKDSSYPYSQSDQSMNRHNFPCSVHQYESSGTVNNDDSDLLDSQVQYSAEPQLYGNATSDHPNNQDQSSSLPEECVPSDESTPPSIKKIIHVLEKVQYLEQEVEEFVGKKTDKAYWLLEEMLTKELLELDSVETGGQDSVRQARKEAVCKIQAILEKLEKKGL
UniProt O43505: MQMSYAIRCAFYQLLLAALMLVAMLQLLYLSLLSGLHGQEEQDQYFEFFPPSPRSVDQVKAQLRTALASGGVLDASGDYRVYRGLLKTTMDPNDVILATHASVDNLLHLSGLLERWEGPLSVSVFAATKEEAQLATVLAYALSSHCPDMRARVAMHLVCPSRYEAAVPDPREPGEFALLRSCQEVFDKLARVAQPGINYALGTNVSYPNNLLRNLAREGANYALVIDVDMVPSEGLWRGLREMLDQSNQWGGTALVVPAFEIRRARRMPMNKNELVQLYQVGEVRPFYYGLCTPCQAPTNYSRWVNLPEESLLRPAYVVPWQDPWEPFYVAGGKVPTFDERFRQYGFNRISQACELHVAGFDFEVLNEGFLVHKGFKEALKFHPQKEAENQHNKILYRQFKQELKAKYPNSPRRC
UniProt P46736, whole entry, looked up: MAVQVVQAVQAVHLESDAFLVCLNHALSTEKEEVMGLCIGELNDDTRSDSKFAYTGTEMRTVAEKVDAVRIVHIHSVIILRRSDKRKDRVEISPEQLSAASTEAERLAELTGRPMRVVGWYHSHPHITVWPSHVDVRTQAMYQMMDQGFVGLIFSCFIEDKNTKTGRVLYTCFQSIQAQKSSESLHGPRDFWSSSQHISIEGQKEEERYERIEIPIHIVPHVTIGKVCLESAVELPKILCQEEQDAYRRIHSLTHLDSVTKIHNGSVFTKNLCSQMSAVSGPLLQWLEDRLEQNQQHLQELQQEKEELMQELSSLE
UniProt O95861: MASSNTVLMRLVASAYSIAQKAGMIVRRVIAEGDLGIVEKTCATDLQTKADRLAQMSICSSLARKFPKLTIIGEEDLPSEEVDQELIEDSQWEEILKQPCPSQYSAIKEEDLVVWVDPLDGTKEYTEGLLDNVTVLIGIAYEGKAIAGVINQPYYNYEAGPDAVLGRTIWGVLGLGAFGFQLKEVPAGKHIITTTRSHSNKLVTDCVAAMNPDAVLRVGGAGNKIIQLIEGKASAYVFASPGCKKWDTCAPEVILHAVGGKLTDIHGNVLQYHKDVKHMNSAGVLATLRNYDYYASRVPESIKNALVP

Tests used:
Experiment in all cases: log2 fold change, soluble protein after heating vs DMSO (PISA); higher = thermal stabilisation; K562 cells, 10 uM, 30 min; active = over 0.2 and 3.5 SD of the protein, either way, in both replicates (recomputed)
bafetinib = compound: Cc1ccc(NC(=O)c2ccc(CN3CC[C@H](N(C)C)C3)c(C(F)(F)F)c2)cc1Nc1nccc(-c2cncnc2)n1 [bafetinib]
Outline: (§1)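 Soluble protein was defined as the supernatant after 21,000xg for 90 min. It came from K562 cells at 2×10^6 cells/mL given 10 μM compound for 30 min, heated in aliquots for 3 min across 48°C-58°C, pooled, and extracted in PBS with 0.5% NP-40 at 4°C, and was quantified by TMTpro 16plex LC-MS/MS with equalised channel sums. Thermal stability against control samples, from duplicates, is reported as log2 fold change.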

[1] = compound: Cc1cccc(CC(=O)N2CCc3c2ccc(-c2cn(C)c4ncnc(N)c24)c3F)n1
Outline: as §1

nilotinib = compound: Cc1cn(-c2cc(NC(=O)c3ccc(C)c(Nc4nccc(-c5cccnc5)n4)c3)cc(C(F)(F)F)c2)cn1 [nilotinib]
Outline: as §1

[2] = compound: Cc1nc(Nc2n[nH]c3c2CN(C(=O)N[C@H](CN(C)C)c2ccccc2)C3(C)C)c2sccc2n1
Outline: as §1

dasatinib = compound: Cc1nc(Nc2ncc(C(=O)Nc3c(C)cccc3Cl)s2)cc(N2CCN(CCO)CC2)n1 [dasatinib]
Outline: as §1

[3] = compound: Cc1ncc(-c2ccnc(Nc3ccc(S(C)(=O)=O)cc3)n2)n1C(C)C
Outline: as §1

[4] = compound: Cn1cc(-c2ccc3c(c2)CCN3C(=O)Cc2cccc(C(F)(F)F)c2)c2c(N)ncnc21
Outline: as §1

[5] = compound: Cn1cc(-c2ccc3nnc(C(F)(F)c4ccc5ncccc5c4)n3n2)cn1
Outline: as §1

tipifarnib = compound: Cn1cncc1[C@@](N)(c1ccc(Cl)cc1)c1ccc2c(c1)c(-c1cccc(Cl)c1)cc(=O)n2C [tipifarnib]
Outline: as §1

mubritinib = compound: FC(F)(F)c1ccc(/C=C/c2nc(COc3ccc(CCCCn4ccnn4)cc3)co2)cc1 [mubritinib]
Outline: as §1

Row | Target | log2 fold change (bafetinib) | log2 fold change [1] | log2 fold change (nilotinib) | log2 fold change [2] | log2 fold change (dasatinib) | log2 fold change [3] | log2 fold change [4] | log2 fold change [5] | log2 fold change (tipifarnib) | log2 fold change (mubritinib)
1 | BIRC2 (UniProt Q13490) | inactive: -0.026 | inactive: -0.066 | inactive: 0.021 | inactive: -0.054 | inactive: -0.103 | inactive: -0.011 | inactive: 0.039 | inactive: 0.024 | inactive: -0.012 | inactive: 0.02
2 | BCL2L1 (UniProt Q07817) | inactive: 0.009 | inactive: -0.083 | inactive: 0.051 | inactive: 0.002 | inactive: -0.086 | inactive: 0.021 | inactive: 0.051 | inactive: -0.049 | inactive: 0.042 | inactive: 0.027
3 | B4GALNT1 (UniProt Q00973) | inactive: 0.141 | inactive: -0.042 | inactive: 0.083 | inactive: 0.012 | inactive: 0.076 | inactive: -0.125 | inactive: -0.128 | inactive: 0.036 | inactive: 0.025 | inactive: 0.015
4 | BRAP (UniProt Q7Z569) | inactive: 0.026 | inactive: 0.017 | inactive: -0.087 | inactive: -0.186 | inactive: -0.097 | inactive: -0.116 | inactive: -0.067 | inactive: -0.066 | inactive: -0.04 | inactive: 0.056
5 | BCKDHA (UniProt P12694) | inactive: -0.029 | inactive: -0.074 | inactive: 0.172 | inactive: -0.064 | inactive: -0.116 | inactive: -0.023 | inactive: -0.058 | inactive: -0.05 | inactive: -0.003 | inactive: 0.014
6 | BRI3 (UniProt O95415) | inactive: -0.162 |  |  |  |  |  |  |  |  | 
7 | BBC3 (UniProt Q9BXH1) | inactive: -0.199 | inactive: 0.05 | inactive: 0.025 | inactive: 0.004 | inactive: 0.088 | inactive: 0.011 | inactive: 0.085 | inactive: 0.11 | inactive: 0.049 | inactive: 0.026
8 | BORA (UniProt Q6PGQ7) | inactive: 0.011 |  |  |  |  |  |  |  |  | 
9 | BPHL (UniProt Q86WA6) | inactive: -0.005 | inactive: 0.002 | inactive: -0.032 | inactive: -0.034 | inactive: -0.032 | inactive: -0.021 | inactive: 0.082 | inactive: 0.009 | inactive: 0.032 | inactive: -0.008
10 | BAG3 (UniProt O95817) | inactive: -0.097 | inactive: -0.163 | inactive: 0.043 | inactive: -0.017 | inactive: 0.038 | inactive: -0.018 | inactive: 0.012 | inactive: -0.001 | inactive: 0.036 | inactive: 0.004
11 | ATRAID isoform 3 (UniProt Q6UW56) | inactive: -0.146 | inactive: 0.019 | inactive: 0.009 | inactive: 0.082 | inactive: 0.057 | inactive: -0.103 | inactive: 0.056 | inactive: -0.004 | inactive: 0.199 | inactive: -0.074
12 | BRD8 (UniProt Q9H0E9) | inactive: -0.032 | inactive: -0.072 | inactive: -0.01 | inactive: -0.055 | inactive: 0.057 | inactive: -0.019 | inactive: 0.018 | inactive: -0.028 | inactive: 0.054 | inactive: 0.011
13 | BRK1 isoform 2 (UniProt Q8WUW1) | inactive: -0.043 | inactive: 0.007 | inactive: 0.02 | inactive: -0.051 | inactive: 0.054 | inactive: -0.051 | inactive: 0.047 | inactive: 0.186 | inactive: -0.049 | inactive: 0.002
14 | B3GAT3 (UniProt O94766) | inactive: -0.077 | inactive: -0.022 | inactive: -0.006 | inactive: -0.017 | inactive: 0.034 | inactive: -0.002 | inactive: 0.081 | inactive: -0.062 | inactive: 0.006 | inactive: 0.037
15 | BNIP1 (UniProt Q12981) | inactive: -0.095 | inactive: 0.032 | inactive: -0.002 | inactive: -0.004 | inactive: -0.047 | inactive: -0.009 | inactive: 0.027 | inactive: 0.058 | inactive: 0.002 | inactive: 0.046
16 | BABAM1 (UniProt Q9NWV8) | inactive: 0.015 | inactive: -0.009 | inactive: -0.002 | inactive: 0.016 | inactive: 0.04 | inactive: 0 | inactive: -0.014 | inactive: -0.029 | inactive: 0.01 | inactive: -0.026
17 | ATXN2L (UniProt Q8WWM7) | inactive: -0.045 | inactive: 0.01 | inactive: -0.013 | inactive: -0.034 | inactive: -0.004 | inactive: -0.016 | inactive: -0.026 | inactive: 0.005 | inactive: 0.015 | inactive: 0.025

Random excerpt: 2 records from the list
Row | Target | log2 fold change (bafetinib) | log2 fold change [1] | log2 fold change (nilotinib) | log2 fold change [2] | log2 fold change (dasatinib) | log2 fold change [3] | log2 fold change [4] | log2 fold change [5] | log2 fold change (tipifarnib) | log2 fold change (mubritinib)
2 | BCL2L1 (UniProt Q07817) | inactive: 0.009 | inactive: -0.083 | inactive: 0.051 | inactive: 0.002 | inactive: -0.086 | inactive: 0.021 | inactive: 0.051 | inactive: -0.049 | inactive: 0.042 | inactive: 0.027
7 | BBC3 (UniProt Q9BXH1) | inactive: -0.199 | inactive: 0.05 | inactive: 0.025 | inactive: 0.004 | inactive: 0.088 | inactive: 0.011 | inactive: 0.085 | inactive: 0.11 | inactive: 0.049 | inactive: 0.026

(listing goes on)

Row | Target | log2 fold change (bafetinib) | log2 fold change [1] | log2 fold change (nilotinib) | log2 fold change [2] | log2 fold change (dasatinib) | log2 fold change [3] | log2 fold change [4] | log2 fold change [5] | log2 fold change (tipifarnib) | log2 fold change (mubritinib)
18 | BLOC1S5 (UniProt Q8TDH9) | inactive: 0.075 | inactive: 0.015 | inactive: 0.007 | inactive: 0.08 | inactive: 0.01 | inactive: 0.003 | inactive: 0.01 | inactive: 0.038 | inactive: -0.077 | inactive: 0.001
19 | B3GNT2 (UniProt Q9NY97) | inactive: -0.057 | inactive: -0.034 | inactive: 0.025 | inactive: -0.055 | inactive: -0.08 | inactive: -0.023 | inactive: 0.056 | inactive: 0.004 | inactive: 0.042 | inactive: 0.084
20 | AVL9 (UniProt Q8NBF6) | inactive: -0.096 | inactive: 0.02 | inactive: -0.011 | inactive: -0.056 | inactive: -0.111 | inactive: -0.01 | inactive: 0.059 | inactive: 0.041 | inactive: -0.043 | inactive: 0.074
21 | BCL9L (UniProt Q86UU0) | inactive: 0.043 | inactive: 0 | inactive: -0.046 | inactive: -0.064 | inactive: 0.018 | inactive: 0.053 | inactive: -0.013 | inactive: -0.031 | inactive: 0.014 | inactive: 0.026
22 | BRIP1 (UniProt Q9BX63) | inactive: -0.135 | inactive: -0.011 | inactive: -0.069 | inactive: 0.036 | inactive: -0.09 | inactive: -0.071 | inactive: 0.02 | inactive: -0.197 | inactive: -0.101 | 
23 | BCS1L, A0A2R8Y7T3 | inactive: 0.1 |  |  |  |  |  |  |  |  | 
24 | BAP1 (UniProt Q92560) | inactive: 0.252 | inactive: -0.071 | inactive: 0.007 | inactive: 0.053 | inactive: -0.031 | inactive: 0.006 | inactive: -0.086 | inactive: -0.064 | inactive: 0.076 | inactive: -0.201
25 | BRD3 (UniProt Q15059) | inactive: -0.152 | inactive: -0.002 | inactive: -0.088 | inactive: -0.031 | inactive: -0.319 | inactive: -0.138 | inactive: -0.05 | inactive: 0.086 | inactive: -0.126 | inactive: 0.047
26 | AURKA (UniProt O14965) | inactive: 0.103 | inactive: -0.113 | inactive: -0.001 | active: 0.699 | inactive: 0.365 | inactive: 0.47 | inactive: 0.073 | inactive: -0.016 | inactive: -0.054 | inactive: -0.078
27 | BLMH (UniProt Q13867) | inactive: 0.047 | inactive: 0.005 | inactive: 0.09 | inactive: -0.067 | inactive: 0.018 | inactive: 0.049 | inactive: -0.012 | inactive: -0.023 | inactive: 0.084 | inactive: -0.019
28 | BAG4 (UniProt O95429) | inactive: -0.073 | inactive: -0.008 | inactive: 0.002 | inactive: -0.058 | inactive: 0.001 | inactive: -0.051 | inactive: 0.043 | inactive: -0.055 | inactive: 0.019 | inactive: -0.001
29 | B4GAT1 (UniProt O43505) | inactive: -0.158 | inactive: 0.138 | inactive: 0.031 | inactive: 0.28 | inactive: -0.012 | inactive: -0.051 | inactive: -0.129 | inactive: -0.011 | inactive: -0.085 | 
30 | BMP1 (UniProt P13497) | inactive: -0.057 |  |  |  |  |  |  |  |  | 
31 | BRCC3 (UniProt P46736) | inactive: 0.013 | inactive: -0.055 | inactive: 0.013 | inactive: 0.014 | inactive: 0.066 | inactive: -0.009 | inactive: 0.002 | inactive: 0.009 | inactive: 0.026 | inactive: 0.013
32 | BPNT1 (UniProt O95861) | inactive: 0.021 | inactive: -0.027 | inactive: 0.1 | inactive: 0.042 | inactive: 0.028 | inactive: 0.001 | inactive: 0.023 | inactive: 0.01 | inactive: -0.049 | inactive: 0.037
33 | BAG2 (UniProt O95816) | inactive: 0.071 | inactive: -0.035 | inactive: 0.051 | inactive: -0.014 | inactive: 0.066 | inactive: -0.014 | inactive: -0.137 | inactive: -0.143 | inactive: 0 | inactive: -0.055
